These are yes or no findings as the source states them, for the method shown. Binding seen in cells or lysates may run through a third protein. Some binding calls cover weakened binding; strength is not graded here.
How the values were obtained:
[1] = biological target: GST‐MxiC (Shigella flexneri) (UniProt Q04640); assay: pull-down; GST fusion bound to GST‐Bind resin from cleared lysate and washed five times with PBS; E. coli lysate of the His-tagged protein applied overnight at 4°C; eluted with 50 mmol/L reduced glutathione (40 mmol/L Tris pH 8.0, 500 mmol/L NaCl); anti‐His Western blot and Coomassie; only the target purified
[2] = biological target: GST‐Spa33^C (Shigella flexneri) (UniProt P0A1K9); assay: pull-down; proteins expressed separately, cell suspensions mixed before sonication; premix of clarified lysates on glutathione‐sepharose beads, washed, eluted; anti‐His Western blot and Coomassie
[3] = biological target: GST‐Spa33 (Shigella flexneri) (UniProt P0A1K9); assay: pull-down; GST‐Spa33 produced in E. coli (Top10), cell lysate incubated with glutathione‐sepharose beads; eluted fractions on SDS‐PAGE, Coomassie

Amino acid sequences for entries named in this document (tags omitted). A change or cut given only in a name is not applied to a line headed by its entry.
UniProt Q04640: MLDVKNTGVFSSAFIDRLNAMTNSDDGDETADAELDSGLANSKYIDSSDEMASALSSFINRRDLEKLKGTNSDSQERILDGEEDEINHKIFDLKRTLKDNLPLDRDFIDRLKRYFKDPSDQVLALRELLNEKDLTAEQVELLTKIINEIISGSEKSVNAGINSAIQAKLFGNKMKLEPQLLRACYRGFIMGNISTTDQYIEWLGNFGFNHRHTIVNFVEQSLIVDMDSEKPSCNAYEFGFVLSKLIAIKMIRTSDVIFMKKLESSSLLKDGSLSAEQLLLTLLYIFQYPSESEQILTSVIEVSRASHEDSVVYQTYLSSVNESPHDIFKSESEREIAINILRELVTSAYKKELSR
UniProt P0A1K9: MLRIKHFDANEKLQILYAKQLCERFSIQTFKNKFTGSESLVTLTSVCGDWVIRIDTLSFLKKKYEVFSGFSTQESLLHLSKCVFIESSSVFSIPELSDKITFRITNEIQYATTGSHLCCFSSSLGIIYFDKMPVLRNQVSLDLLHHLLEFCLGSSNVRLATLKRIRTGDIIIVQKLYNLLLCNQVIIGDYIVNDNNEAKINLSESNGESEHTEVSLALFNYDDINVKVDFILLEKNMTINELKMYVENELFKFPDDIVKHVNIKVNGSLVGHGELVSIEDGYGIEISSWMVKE

Row | Substance | binding [1] | binding [2] | binding [3]
1 | Spa33 full-length with hexa-histidine at both ends (His‐Spa33‐His, Spa33^FL) (from UniProt P0A1K9 1-293) | binds | binds | –
2 | Spa33^C‐His produced from pBAD‐Spa33^C (from UniProt P0A1K9 192-293) (domain or fragment) | binds | – | –
3 | Spa33^CC produced from pGEX4T1‐Spa33 (from UniProt P0A1K9 237-293) (domain or fragment) | – | – | binds
4 | Spa33^CC produced from pBAD‐Spa33^C (from UniProt P0A1K9 237-293) (domain or fragment) | binds | – | –

Source: PMC6925163
